Results published in patent publication US20260183370A1 (ASCENDIS PHARMA GROWTH DISORDERS A S, published 2026).
Results are given in words; binding and its absence hold for the method and conditions named. Some binding calls cover weakened binding; strength is not graded here.

Target: T1, NPR-C (natriuretic peptide receptor C), expressed on Hek293 cells (UniProt P17342)
T1 sequence (looked up): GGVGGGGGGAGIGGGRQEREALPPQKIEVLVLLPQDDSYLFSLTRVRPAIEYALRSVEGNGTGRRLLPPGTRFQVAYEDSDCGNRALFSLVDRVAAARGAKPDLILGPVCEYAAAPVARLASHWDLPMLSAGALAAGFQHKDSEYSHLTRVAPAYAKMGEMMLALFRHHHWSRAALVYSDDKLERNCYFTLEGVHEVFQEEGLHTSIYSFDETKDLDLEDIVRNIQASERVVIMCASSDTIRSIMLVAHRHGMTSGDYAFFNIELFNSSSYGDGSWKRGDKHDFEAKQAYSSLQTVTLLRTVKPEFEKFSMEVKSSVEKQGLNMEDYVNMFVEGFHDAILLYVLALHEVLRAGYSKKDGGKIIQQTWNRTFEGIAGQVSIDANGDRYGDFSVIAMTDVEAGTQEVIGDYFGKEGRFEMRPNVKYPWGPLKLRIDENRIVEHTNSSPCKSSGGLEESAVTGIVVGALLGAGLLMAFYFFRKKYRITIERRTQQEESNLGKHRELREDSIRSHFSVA
Assay: competition with fluorescein-labelled CNP-38 27d on NPR-C expressing Hek293 cells, flow cytometry; CNP-38 is the reference (IC50 not given)

- binding: binds
Binder: LQEHPNARKYKGANKKGLSKGCFGLKLDRIGSMSGLGC (disulfide bridge between Cys22 and Cys38) [CNP-38 (SEQ ID NO:24)]
